{"sequences": {"note": "Protein sequences, listed by entry. Tags and fused reporters are not part of them.", "UniProt P25098": "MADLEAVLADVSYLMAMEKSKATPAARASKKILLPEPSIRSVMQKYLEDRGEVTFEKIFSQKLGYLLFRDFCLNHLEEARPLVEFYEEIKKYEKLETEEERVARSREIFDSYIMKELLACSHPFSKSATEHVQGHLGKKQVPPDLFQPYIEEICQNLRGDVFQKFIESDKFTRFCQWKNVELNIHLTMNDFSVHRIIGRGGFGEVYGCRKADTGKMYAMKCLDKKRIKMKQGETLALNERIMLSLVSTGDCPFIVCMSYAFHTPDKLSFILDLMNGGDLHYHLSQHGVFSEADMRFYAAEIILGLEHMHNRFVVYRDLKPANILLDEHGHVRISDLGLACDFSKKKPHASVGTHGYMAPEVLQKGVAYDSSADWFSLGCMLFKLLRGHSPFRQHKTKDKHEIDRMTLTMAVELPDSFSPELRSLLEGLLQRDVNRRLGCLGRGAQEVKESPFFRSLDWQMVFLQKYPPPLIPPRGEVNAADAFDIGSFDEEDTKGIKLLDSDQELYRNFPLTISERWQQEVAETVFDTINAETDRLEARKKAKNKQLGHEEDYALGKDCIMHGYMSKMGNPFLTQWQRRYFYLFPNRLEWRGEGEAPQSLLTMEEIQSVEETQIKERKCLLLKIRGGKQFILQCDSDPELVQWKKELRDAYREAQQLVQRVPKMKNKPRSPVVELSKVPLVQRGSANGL", "UniProt P35626": "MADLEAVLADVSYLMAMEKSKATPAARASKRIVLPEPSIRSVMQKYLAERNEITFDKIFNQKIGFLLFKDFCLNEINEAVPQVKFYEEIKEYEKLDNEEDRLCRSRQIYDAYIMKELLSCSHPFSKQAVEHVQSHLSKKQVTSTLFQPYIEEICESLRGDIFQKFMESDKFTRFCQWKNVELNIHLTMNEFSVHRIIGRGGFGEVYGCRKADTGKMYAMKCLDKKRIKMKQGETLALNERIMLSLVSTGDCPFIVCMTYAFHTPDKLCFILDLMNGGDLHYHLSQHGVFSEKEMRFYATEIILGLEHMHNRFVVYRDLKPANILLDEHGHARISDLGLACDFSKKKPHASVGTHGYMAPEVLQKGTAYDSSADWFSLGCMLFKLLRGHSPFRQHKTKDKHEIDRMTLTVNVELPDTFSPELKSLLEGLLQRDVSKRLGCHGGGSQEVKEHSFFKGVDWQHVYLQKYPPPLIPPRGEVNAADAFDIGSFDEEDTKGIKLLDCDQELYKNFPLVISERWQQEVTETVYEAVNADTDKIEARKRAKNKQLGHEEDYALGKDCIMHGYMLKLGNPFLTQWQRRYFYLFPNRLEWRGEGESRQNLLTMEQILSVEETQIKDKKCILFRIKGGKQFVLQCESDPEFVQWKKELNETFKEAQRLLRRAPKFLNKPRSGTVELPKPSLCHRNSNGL"}, "source": "paper PMC9606269", "about": "“Biased signaling due to oligomerization of the G protein-coupled platelet-activating factor receptor” (Nature Communications, 2022)", "molecules": {"B1": {"name": "Human β-arrestin1 tagged with Rluc (natural protein, UniProt P49407 1-418, looked up)", "chain": "MGDKGTRVFKKASPNGKLTVYLGKRDFVDHIDLVDPVDGVVLVDPEYLKERRVYVTLTCAFRYGREDLDVLGLTFRKDLFVANVQSFPPAPEDKKPLTRLQERLIKKLGEHAYPFTFEIPPNLPCSVTLQPGPEDTGKACGVDYEVKAFCAENLEEKIHKRNSVRLVIRKVQYAPERPGPQPTAETTRQFLMSDKPLHLEASLDKEIYYHGEPISVNVHVTNNTNKTVKKIKISVRQYADICLFNTAQYKCPVAMEEADDTVAPSSTFCKVYTLTPFLANNREKRGLALDGKLKHEDTNLASSTLLREGANREILGIIVSYKVKVKLVVSRGGLLGDLASSDVAVELPFTLMHPKPKEEPPHREVPENETPVDTNLIELDTNDDDIVFEDFARQRLKGMKDDKEEEEDGTGSPQLNNR"}}, "key": {"[1]": {"molecular_target": "Halo-PAFR E178K (natural genetic variant) (human) (UniProt P25105)", "test": "single-molecule photobleaching step analysis (TIRF microscopy); Halo-PAFR WT against the mutant Y151C-I154C or the variant E178K; density not told"}, "[2]": {"molecular_target": "Halo-PAFR E178K together with I186C^5.38 (human) (UniProt P25105)", "test": "cross-linking; Cys cross-linking without CuP treatment; cell surface Halo-PAFR labelled with Halo-660; nonreducing SDS-PAGE"}, "[3]": {"molecular_target": "Halo-PAFR G147C^4.55 (human) (UniProt P25105)", "test": "cross-linking; Cys cross-linking with CuP (1.5 mM Cu(II)-(o-phenanthroline), pH 8.0, 20 °C, 30 min) on living HEK-293 cells (parental or Δβarr1/2, with or without βarr1); cell surface Halo-PAFR labelled with Halo-660; nonreducing SDS-PAGE"}, "[4]": {"molecular_target": "Halo-PAFR I20C^1.37 (human) (UniProt P25105)", "test": "cross-linking; Cys cross-linking with CuP (1.5 mM Cu(II)-(o-phenanthroline), pH 8.0, 20 °C, 30 min) on living HEK-293 cells (parental or Δβarr1/2, with or without βarr1); cell surface Halo-PAFR labelled with Halo-660; nonreducing SDS-PAGE"}, "[5]": {"molecular_target": "Halo-PAFR I20C^1.37-G147C^4.55 (human) (UniProt P25105)", "test": "cross-linking; Cys cross-linking with CuP (1.5 mM Cu(II)-(o-phenanthroline), pH 8.0, 20 °C, 30 min) on living HEK-293 cells (parental or Δβarr1/2, with or without βarr1); cell surface Halo-PAFR labelled with Halo-660; nonreducing SDS-PAGE"}, "[6]": {"molecular_target": "Halo-PAFR I20C^1.37-I154C^4.62 (human) (UniProt P25105)", "test": "cross-linking; Cys cross-linking with CuP (1.5 mM Cu(II)-(o-phenanthroline), pH 8.0, 20 °C, 30 min) on living HEK-293 cells (parental or Δβarr1/2, with or without βarr1); cell surface Halo-PAFR labelled with Halo-660; nonreducing SDS-PAGE"}, "[7]": {"molecular_target": "Halo-PAFR I20C^1.37-I186C^5.38 (human) (UniProt P25105)", "test": "cross-linking; Cys cross-linking with CuP (1.5 mM Cu(II)-(o-phenanthroline), pH 8.0, 20 °C, 30 min) on living HEK-293 cells (parental or Δβarr1/2, with or without βarr1); cell surface Halo-PAFR labelled with Halo-660; nonreducing SDS-PAGE"}, "[8]": {"molecular_target": "Halo-PAFR I20C^1.37-L155C^4.63 (human) (UniProt P25105)", "test": "cross-linking; Cys cross-linking with CuP (1.5 mM Cu(II)-(o-phenanthroline), pH 8.0, 20 °C, 30 min) on living HEK-293 cells (parental or Δβarr1/2, with or without βarr1); cell surface Halo-PAFR labelled with Halo-660; nonreducing SDS-PAGE"}, "[9]": {"molecular_target": "Halo-PAFR I20C^1.37-Y151C^4.59 (human) (UniProt P25105)", "test": "cross-linking; Cys cross-linking with CuP (1.5 mM Cu(II)-(o-phenanthroline), pH 8.0, 20 °C, 30 min) on living HEK-293 cells (parental or Δβarr1/2, with or without βarr1); cell surface Halo-PAFR labelled with Halo-660; nonreducing SDS-PAGE"}, "[10]": {"molecular_target": "Halo-PAFR I154C^4.62 (human) (UniProt P25105)", "test": "cross-linking; Cys cross-linking with CuP (1.5 mM Cu(II)-(o-phenanthroline), pH 8.0, 20 °C, 30 min) on living HEK-293 cells (parental or Δβarr1/2, with or without βarr1); cell surface Halo-PAFR labelled with Halo-660; nonreducing SDS-PAGE"}, "[11]": {"molecular_target": "Halo-PAFR I186C^5.38 (human) (UniProt P25105)", "test": "cross-linking; Cys cross-linking with CuP (1.5 mM Cu(II)-(o-phenanthroline), pH 8.0, 20 °C, 30 min) on living HEK-293 cells (parental or Δβarr1/2, with or without βarr1); cell surface Halo-PAFR labelled with Halo-660; nonreducing SDS-PAGE"}, "[12]": {"molecular_target": "Halo-PAFR L155C^4.63 (human) (UniProt P25105)", "test": "cross-linking; Cys cross-linking with CuP (1.5 mM Cu(II)-(o-phenanthroline), pH 8.0, 20 °C, 30 min) on living HEK-293 cells (parental or Δβarr1/2, with or without βarr1); cell surface Halo-PAFR labelled with Halo-660; nonreducing SDS-PAGE"}, "[13]": {"molecular_target": "Halo-PAFR Y151C^4.59 (human) (UniProt P25105)", "test": "cross-linking; Cys cross-linking with CuP (1.5 mM Cu(II)-(o-phenanthroline), pH 8.0, 20 °C, 30 min) on living HEK-293 cells (parental or Δβarr1/2, with or without βarr1); cell surface Halo-PAFR labelled with Halo-660; nonreducing SDS-PAGE"}, "[14]": {"molecular_target": "PAFR-Venus E178K variant (human) (UniProt P25105)", "test": "FRET or BRET; BRET between GRK2-Rluc or GRK3-Rluc and PAFR-Venus co-transfected in cells, stimulation with PAF (1 μM)"}, "[15]": {"molecular_target": "PAFR-Venus Y151C^4.59-I154C^4.62 (human) (UniProt P25105)", "test": "FRET or BRET; BRET between GRK2-Rluc or GRK3-Rluc and PAFR-Venus co-transfected in cells, stimulation with PAF (1 μM)"}, "[16]": {"molecular_target": "Wild-type human PAFR fused at its C terminus to Venus (PAFR-Venus) or to Renilla luciferase 8 (PAFR-Rluc) (human) (UniProt P25105)", "test": "FRET or BRET; BRET between GRK2-Rluc or GRK3-Rluc and PAFR-Venus co-transfected in cells, stimulation with PAF (1 μM)"}, "[17]": {"molecular_target": "SNAP-tagged PAFR WT (human) (UniProt P25105)", "test": "FRET or BRET; TR-FRET between N-terminal SNAP-tags labelled with SNAP-Lumi4-Tb (100 nM) and SNAP-green (300 nM) at the surface of HEK-293 cells (βarr siRNA, or Δβarr1/2 cells with βarr1 plasmid)"}, "[18]": {"molecular_target": "Wild-type human PAFR fused at its C terminus to Venus (PAFR-Venus) or to Renilla luciferase 8 (PAFR-Rluc) (human) (UniProt P25105)", "test": "FRET or BRET; competition BRET: PAFR-Rluc and PAFR-Venus with different amounts of co-expressed untagged receptors"}, "[19]": {"molecular_target": "Wild-type human PAFR fused at its C terminus to Venus (PAFR-Venus) or to Renilla luciferase 8 (PAFR-Rluc) (human) (UniProt P25105)", "test": "FRET or BRET; BRET between PAFR-Rluc and PAFR-Venus in cells of the TM peptide experiment (control: pure DMSO)"}, "[20]": {"molecular_target": "Wild-type human PAFR fused at its C terminus to Venus (PAFR-Venus) or to Renilla luciferase 8 (PAFR-Rluc) (human) (UniProt P25105)", "test": "FRET or BRET; BRET saturation: increasing amounts of Venus-tagged receptors with constant amounts of Rluc-tagged receptors in HEK293 cells, coelenterazine h 5 μM"}, "[21]": {"molecular_target": "Wild-type human PAFR fused at its C terminus to Venus (PAFR-Venus) or to Renilla luciferase 8 (PAFR-Rluc) (human) (UniProt P25105)", "test": "FRET or BRET; BRET between βarr1-Rluc and PAFR-Venus co-transfected in cells, stimulation with PAF (1 μM)"}, "[22]": {"molecular_target": "Wild-type human PAFR fused at its C terminus to Venus (PAFR-Venus) or to Renilla luciferase 8 (PAFR-Rluc) (human) (UniProt P25105)", "test": "FRET or BRET; BRET between PAFR-Rluc and PAFR-Venus in cells after 10 μM synthetic TM peptide, 37 °C, 2 h; peptide against receptor; only the binder purified"}}, "note": "No constants are given. Whether binding was seen depends on the method and setting. For part of these data: Binding seen in cells or lysates may run through a third protein. Some results given as binding are weak or reduced against the parent protein; the word gives no strength."}
{"molecule": "Halo-PAFR E178K (natural genetic variant) (from UniProt P25105 1-342) (receptor)", "values": [{"measurement": "binding", "setting": "[1]", "value": "binds"}]}
{"molecule": "Halo-PAFR E178K together with I186C^5.38 (from UniProt P25105 1-342) (receptor)", "values": [{"measurement": "binding", "setting": "[2]", "value": "binds"}]}
{"molecule": "Halo-PAFR G147C^4.55 (from UniProt P25105 1-342) (receptor)", "values": [{"measurement": "binding", "setting": "[3]", "value": "binds"}]}
{"molecule": "Halo-PAFR I20C^1.37 (from UniProt P25105 1-342) (receptor)", "values": [{"measurement": "binding", "setting": "[4]", "value": "binds"}]}
{"molecule": "Halo-PAFR I20C^1.37-G147C^4.55 (from UniProt P25105 1-342) (receptor)", "values": [{"measurement": "binding", "setting": "[5]", "value": "binds"}]}
{"molecule": "Halo-PAFR I20C^1.37-I154C^4.62 (from UniProt P25105 1-342) (receptor)", "values": [{"measurement": "binding", "setting": "[6]", "value": "binds"}]}
{"molecule": "Halo-PAFR I20C^1.37-I186C^5.38 (from UniProt P25105 1-342) (receptor)", "values": [{"measurement": "binding", "setting": "[7]", "value": "binds"}]}
{"molecule": "Halo-PAFR I20C^1.37-L155C^4.63 (from UniProt P25105 1-342) (receptor)", "values": [{"measurement": "binding", "setting": "[8]", "value": "binds"}]}
{"molecule": "Halo-PAFR I20C^1.37-Y151C^4.59 (from UniProt P25105 1-342) (receptor)", "values": [{"measurement": "binding", "setting": "[9]", "value": "binds"}]}
{"molecule": "Halo-PAFR I154C^4.62 (from UniProt P25105 1-342) (receptor)", "values": [{"measurement": "binding", "setting": "[10]", "value": "binds"}]}
{"molecule": "Halo-PAFR I186C^5.38 (from UniProt P25105 1-342) (receptor)", "values": [{"measurement": "binding", "setting": "[11]", "value": "binds"}]}
{"molecule": "Halo-PAFR L155C^4.63 (from UniProt P25105 1-342) (receptor)", "values": [{"measurement": "binding", "setting": "[12]", "value": "binds"}]}
{"molecule": "Halo-PAFR Y151C^4.59 (from UniProt P25105 1-342) (receptor)", "values": [{"measurement": "binding", "setting": "[13]", "value": "binds"}]}
{"molecule": "Human GRK2 fused to Renilla luciferase (from UniProt P25098 1-689) (enzyme)", "values": [{"measurement": "binding", "setting": "[14]", "value": "binds"}, {"measurement": "binding", "setting": "[15]", "value": "binds"}, {"measurement": "binding", "setting": "[16]", "value": "binds"}]}
{"molecule": "Human GRK3 fused to Renilla luciferase (from UniProt P35626 1-688) (enzyme)", "values": [{"measurement": "binding", "setting": "[14]", "value": "binds"}, {"measurement": "binding", "setting": "[15]", "value": "binds"}, {"measurement": "binding", "setting": "[16]", "value": "binds"}]}
{"molecule": "SNAP-tagged PAFR WT (from UniProt P25105 1-342) (receptor)", "values": [{"measurement": "binding", "setting": "[17]", "value": "binds"}]}
{"molecule": "Untagged PAFR (without Rluc or Venus tags) (from UniProt P25105 1-342) (receptor)", "values": [{"measurement": "binding", "setting": "[18]", "value": "binds"}]}
{"molecule": "Wild-type human PAFR fused at its C terminus to Venus (PAFR-Venus) or to Renilla luciferase 8 (PAFR-Rluc) (from UniProt P25105 1-342) (receptor)", "values": [{"measurement": "binding", "setting": "[19]", "value": "binds"}, {"measurement": "binding", "setting": "[18]", "value": "binds"}, {"measurement": "binding", "setting": "[20]", "value": "binds"}]}
{"molecule": "βarr1-3D mutant (L335D, L338D, S340D) tagged with Rluc (from UniProt P49407 1-418)", "values": [{"measurement": "binding", "setting": "[21]", "value": "no binding"}]}
{"molecule": "KKKYTLFPIVYSIIFVLGVIANGYVLWVFAKKK", "note": "[TM1 peptide of human PAFR (residues 15-41) with KKK at both ends]", "values": [{"measurement": "binding", "setting": "[22]", "value": "binds"}]}
{"molecule": "KKKTRKRGISLSLVIWVAIVGAASYFLILDKKK", "note": "[TM4 peptide of human PAFR (residues 130-156) with KKK at both ends]", "values": [{"measurement": "binding", "setting": "[22]", "value": "binds"}]}
{"molecule": "KKKVLIIHIFIVFSFFLVFLIILFCNLVIKKK", "note": "[TM5 peptide of human PAFR (residues 184-209) with KKK at both ends]", "values": [{"measurement": "binding", "setting": "[22]", "value": "binds"}]}
{"molecule": "KKKAINDAHQVTLCLLSTNCVLDPVIYCFLKKK", "note": "[TM7 peptide of human PAFR (residues 270-296) with KKK at both ends]", "values": [{"measurement": "binding", "setting": "[22]", "value": "binds"}]}
{"molecule": "B1", "values": [{"measurement": "binding", "setting": "[21]", "value": "binds"}]}
